Reference: PubChem BioAssay AID590 (National Center for Advancing Translational Sciences (NCATS), 2007)
Several values for one entry are separate records, joined by “and”; a condition that tells them apart may be missing. Equal entries are not always repeated. Among all 59,000 compounds or so, about 6,500 (11%) were called active. Inconclusive results, whose numbers are uncertain, are shown with a selection of clear calls. Cut-off read from the data, not from the text of the source: active = max dye-equivalent concentration above about 10 nM; inconclusive = mostly about 1.1 nM to 9.6 nM; inactive = weaker than that.

experiment: qHTS Assay for Spectroscopic Profiling in A350 Spectral Region; settings: Compound autofluorescence, 340/450 nm, Alexa 350 dye-equivalents; stronger effect = higher value

SMILES	max dye-equivalent concentration
COc1cc(NC(=O)c2cc(C)on2)cc(OC)c1OC	inactive
COc1ccccc1-n1nc(C(=O)NCc2ccco2)c2ccccc2c1=O	inactive
CC1CCN(CCC(=O)N2CCCc3c2c(=O)oc2ccc(O)cc32)CC1	inconclusive: 2.5e-09 M
Cc1ccc(S(=O)(=O)N2CCOCC2)cc1C(=O)Nc1ccccn1	inconclusive: 1.2e-09 M
CCC(=O)N1CCc2cc(S(=O)(=O)CCC(=O)NCc3ccc4c(c3)OCO4)ccc21	inconclusive: 1.4e-09 M
COc1ccccc1N1CCN(CCCCNS(=O)(=O)c2cccc3c(N(C)C)cccc23)CC1	inconclusive: 3.6e-09 M
Cc1cc(CC(=O)O)n(C)c1C(=O)c1ccc(Cl)cc1	inconclusive: 3.2e-09 M
Cn1c(NC(=O)c2cccc(Cn3cc(Cl)cn3)c2)nc2ccccc21	active: 3.3e-08 M
COC(=O)c1oc2ccc(Br)cc2c1-n1cccc1	inactive
Cc1cccc2cc(COC(=O)c3ccccn3)c(=O)[nH]c12	inconclusive: 2.8e-09 M
O=C(CSc1nc(-c2ccncc2)nn1CC(=O)N1CCCCC1)NC1CCCC1	inconclusive: 2.4e-09 M
Cc1onc(-c2ccccc2)c1C(=O)Nc1ccc2c(C)cc(=O)oc2c1	active: 3.9e-07 M
CCC1(CC)C(=O)N(C)C(=O)NC1=NCc1ccccc1	inconclusive: 2.7e-09 M
Cc1cc2nc3c(=O)[nH]c(=O)nc-3n(CC(O)C(O)C(O)CO)c2cc1C (stereo unspecified)	active: 1.5e-07 M and active: 1.9e-08 M
C=CCn1c(-c2c[nH]c3ccccc23)n[nH]c1=S	inconclusive: 1.1e-09 M
O=c1c2ccccc2oc2nc(-c3ccco3)n(Cc3ccccc3)c(=O)c12	inconclusive: 1.3e-09 M
CCc1nnc(NC(=O)CSc2nnc(-c3c[nH]c4ccccc34)n2C)s1	inconclusive: 2.3e-09 M
CCOC(=O)c1ccc(N2C(=O)C3C(C2=O)C(C(=O)c2ccc(Cl)cc2)N2CCCC32)cc1 (stereo unspecified)	inconclusive: 1.1e-09 M
CSc1nnc2c3ccccc3n(Cc3ccccc3)c2n1	inconclusive: 3.7e-09 M
CSC1CCCCC1(O)CSc1nc2ccccc2o1 (stereo unspecified)	inconclusive: 6.2e-09 M
Cc1ccc([C@@H](O)c2cnc(C)n2Cc2ccccc2)cc1	inactive
CCc1ccc(N/C(SC)=C(/C#N)C(N)=O)cc1	inconclusive: 1.8e-09 M
c1ccc2cc(NCNc3ccc4ccccc4c3)ccc2c1	active: 1e-08 M

For reference, part of the list above.
SMILES	max dye-equivalent concentration
CCC(=O)N1CCc2cc(S(=O)(=O)CCC(=O)NCc3ccc4c(c3)OCO4)ccc21	inconclusive: 1.4e-09 M
COc1ccccc1N1CCN(CCCCNS(=O)(=O)c2cccc3c(N(C)C)cccc23)CC1	inconclusive: 3.6e-09 M
Cc1cc(CC(=O)O)n(C)c1C(=O)c1ccc(Cl)cc1	inconclusive: 3.2e-09 M

The results go on.

SMILES	max dye-equivalent concentration
Cc1noc(C)c1COC(=O)c1ccc2c(c1)OCCO2	active: 1.3e-07 M
C=C(C)CN=c1scc(C)n1/N=C/c1ccco1	inconclusive: 2.5e-09 M
O=C(NCC1CCCO1)[C@@H]1CSC2c3ccccc3C(=O)N21 (stereo partly specified)	inactive
CCOC(=O)N1CCC(c2nc(C)sc2C(=O)O)CC1	inconclusive: 5.9e-09 M
C(#Cc1ccccc1)CN1CCN(c2ccccn2)CC1	inconclusive: 2.6e-09 M
Cc1onc(-c2c(F)cccc2Cl)c1C(=O)Nc1ccc(S(=O)(=O)Nc2ncccn2)cc1	inconclusive: 1.1e-09 M
CC(=C1C2C=CC1C1C(=O)NC(=O)C21)c1ccccc1 (stereo unspecified)	active: 7.3e-08 M
COc1cc2c(cc1OC)-c1cc(NC3CCCC3)nc(=O)n1CC2	active: 1.2e-08 M
CCOC(=O)Cn1nnnc1C(CC)N(Cc1cc2ccc(C)cc2[nH]c1=O)C1CCCC1 (stereo unspecified)	inconclusive: 8.4e-09 M
O=c1c2c3nc4ccccc4nc3n(-c3ccc4c(c3)OCCO4)c2ncn1CC1CCCO1 (stereo unspecified)	active: 1.5e-08 M
COc1cc(OC)cc(C(=O)Nc2ccc3c(c2)COC3=O)c1	inactive
COc1ccc(C2(C(F)(F)F)NC(=O)N(C)C(=O)N2C)cc1 (stereo unspecified)	inactive
CC1CN(C2CCCCC2)c2nc3c(c(=O)n(C)c(=O)n3C)n2C1 (stereo unspecified)	inactive
COc1cccc2cc(C(=O)N(C)C3CCN(C)CC3)c(=O)oc12	inconclusive: 4.8e-09 M
CC1(C(=O)NC2CCCC2)CCC(=O)N1Cc1ccc2c(c1)OCO2 (stereo unspecified)	inconclusive: 8.1e-09 M
CCCCNC(=O)c1cc(-c2ccc(OC)cc2)on1	inconclusive: 6.7e-09 M
O=C(NCc1ccco1)C(c1ccco1)N(C(=O)Cn1nnc2ccccc21)c1ccc2c(c1)CCC2 (stereo unspecified)	inactive
Clc1cccc(-c2nnc3sc(-c4ccccc4)nn23)c1	inconclusive: 1.3e-09 M
CC(OC(=O)c1cc[n+]([O-])cc1)C(=O)Nc1ccc(Cl)cn1 (stereo unspecified)	inconclusive: 2.6e-09 M
CCN1CCN(c2oc(-c3ccc(OC)cc3)nc2C#N)CC1	inconclusive: 3.1e-09 M
c1ccc(-c2nc3nonc3c3nc4ccccc4n23)cc1	active: 7.3e-08 M
Cc1ccccc1NS(=O)(=O)c1ccc2[nH]cc(C(=O)NCCCN3CCOCC3)c(=O)c2c1	inconclusive: 1.7e-09 M
O=C(NC12CC3CC(CC(C3)C1)C2)N1CCN(c2ccccn2)CC1	inconclusive: 2.7e-09 M

Part of the list above in order of length of the SMILES, rising.
SMILES	max dye-equivalent concentration
CCCCNC(=O)c1cc(-c2ccc(OC)cc2)on1	inconclusive: 6.7e-09 M
Cn1c(NC(=O)c2cccc(Cn3cc(Cl)cn3)c2)nc2ccccc21	active: 3.3e-08 M
Cc1ccccc1NS(=O)(=O)c1ccc2[nH]cc(C(=O)NCCCN3CCOCC3)c(=O)c2c1	inconclusive: 1.7e-09 M

Following part

SMILES	max dye-equivalent concentration
CCC(C(=O)OCCN(CC)CC)c1ccccc1 (stereo unspecified)	inconclusive: 4.6e-09 M
CCn1cc(C(=O)O)c(=O)c2cc3c(cc21)OCO3	active: 6.1e-08 M and inconclusive: 6.7e-09 M
Cc1cc(C)nc(SCc2nnc(SCC(=O)N3CCCc4ccccc43)o2)n1	inactive
COc1ccc(C2=Nn3c(nnc3-c3ccc(OC)cc3)SC2)cc1	inactive
Cc1nnc(C)n1/N=C/c1cc(Br)cc(Br)c1O	inconclusive: 4.6e-09 M
COc1ccc(-c2nc3cnc(N4CCNCC4)nc3n(-c3ccc(OC)cc3)c2=O)cc1	inconclusive: 4.9e-09 M
CCN(CC)c1ccc2c(c1)C(=O)N(C)C2=O	inconclusive: 1.7e-09 M
CCOC(=O)CN(C(=O)CSc1nnc(COc2ccc(OC)cc2)n1C)c1ccccc1	inactive
Nc1cccc(-c2nc3ccc(N)cc3s2)c1	active: 1.4e-06 M
O=C1[C@@H]2[C@H](C(=O)N1n1cnnc1)[C@H]1C=C[C@@H]2C1	inactive
CC(=O)c1sc(NC(=O)CN2C(=O)CCC2=O)nc1C	active: 1.3e-08 M
O=c1cc(-c2cccc(O)c2)oc2cc(O)ccc12	inactive
COc1ccc(-n2c(SCC(=O)Nc3ccc4c(c3)OCO4)nnc2C(C)N2CCCCC2)cc1 (stereo unspecified)	inactive
O=c1nc(N2CCOCC2)nc2n1CCO2	inactive
O=C(C1Cc2ccccc2CN1S(=O)(=O)c1cccs1)N1CCCCCC1 (stereo unspecified)	inconclusive: 1.1e-09 M
COc1ccc(-n2c(=O)c(C)nc3cnc(N4CCOCC4)nc32)cc1	inconclusive: 6.9e-09 M
COc1ccccc1CNS(=O)(=O)c1cccc(S(=O)(=O)N2CCOCC2)c1	inconclusive: 8.4e-09 M
O=C(NC(=O)c1cccc(OC(F)(F)C(F)F)c1)OC1CCS(=O)(=O)C1 (stereo unspecified)	inactive
CC1(C)OC(=O)C2(Cc3ccccc3N3CCCCC32)C(=O)O1 (stereo unspecified)	inconclusive: 1.2e-09 M
O=C(O)CC1NC(=O)N(c2ccc(Cl)cc2)C1=O (stereo unspecified)	inactive
Cc1c(C)c2c(c(C)c1O)CC[C@@](C)(C(=O)O)O2	inactive
CN1CCN(c2ccnc(-c3ccc(N(C)C)cc3)n2)CC1	active: 1.4e-07 M
COc1cccc(-n2c(C)c(C(C)=O)c(C(C)=O)c2C)c1	inactive

A few values from the entries so far:
max dye-equivalent concentration, `O=C(C1Cc2ccccc2CN1S(=O)(=O)c1cccs1)N1CCCCCC1` (stereo unspecified) reads inconclusive: 1.1e-09 M
max dye-equivalent concentration, `O=c1cc(-c2cccc(O)c2)oc2cc(O)ccc12` reads inactive

(further entries)

SMILES	max dye-equivalent concentration
CN(C)c1ncc2nc(-c3ccc(Cl)cc3)c(=O)n(Cc3cccs3)c2n1	inconclusive: 9.6e-09 M
CCOC(=O)N1CCN(S(=O)(=O)c2cccc3nonc23)CC1	inactive
COc1ccccc1NC(=O)NCc1ccc2c(c1)OCO2	inactive
Cc1cc(C)cc(N2C(=O)CC(n3ccnc3)C2=O)c1 (stereo unspecified)	inconclusive: 1.5e-09 M
O=C(Nc1cccc(-c2cnc3ccccc3n2)c1)c1ccco1	inconclusive: 3.9e-09 M
O=C(CN(C(=O)CCC(=O)Nc1nccs1)c1ccc(F)cc1)NCc1ccco1	inconclusive: 1.6e-09 M
COCCn1c(SCC(=O)Nc2nnc(C)s2)nnc1-c1c[nH]c2ccccc12	inconclusive: 1.3e-09 M
Cc1cc(COc2ccccc2OCCN2CCN(C)CC2)no1	inconclusive: 3e-09 M
CS(=O)(=O)N1CCC[C@@]2(CCN(c3ccccc3)C2)C1	inactive
CN1CCN(c2ccnc(-c3cccnc3)n2)CC1	inconclusive: 3e-09 M
O=C(c1ccccc1)n1c(=S)nc2ccccn21	inactive
O=C(CSc1nnc(-c2ccccc2)n1C1CCCCC1)N1CCCC1	inconclusive: 3.5e-09 M
Cc1cccc(-c2cc3nc4c(c(N5CCOCC5)n3n2)CCCC4)c1	inconclusive: 1e-08 M
Cc1c(NC(=O)C2(c3ccccc3)CCOCC2)c(=O)n(-c2ccccc2)n1C	inconclusive: 1.4e-09 M
Cc1noc(C)c1COC(=O)c1ccc(-c2nc3ccccc3s2)s1	active: 3.2e-07 M
COc1ccccc1NC(=O)C1CCCN1C(=O)NCc1ccccc1 (stereo unspecified)	inconclusive: 1.8e-09 M
COc1ccc(-n2c(=O)c(-c3ccc(Cl)cc3)nc3cnc(N4CCNCC4)nc32)cc1	inconclusive: 3.7e-09 M
COCC(=O)NCc1ccc2c(c1)cc(C)n2C	inconclusive: 1.1e-09 M
O=C(O)CC1CCCC(c2ccccc2)C1=O (stereo unspecified)	inactive
CCCCn1c(SCC(=O)NCC2CCCO2)nc2ccc(N3CCOCC3)cc2c1=O (stereo unspecified)	active: 7.1e-08 M
CCc1c(C)nc2ncnn2c1N1CCC(C(=O)N2CCN(c3ccccc3)CC2)CC1	inconclusive: 1.4e-09 M
CC(=O)OCC(=O)[C@@]1(O)CC[C@@H]2[C@H]3CCC4=CC(=O)CC[C@]4(C)[C@]3(F)[C@@H](O)C[C@@]21C	inactive
